In US11667638B2, “4-substitued cytisine analogues” (The University of Bristol, priority 2016, dated 2023):
For at least one compound, name, drawing or mass did not settle the structure.

Sequences of proteins named here, by UniProt entry; tags and fusion partners are left off. Residues count along the entry.
UniProt P36544, 23-502 limits assumed: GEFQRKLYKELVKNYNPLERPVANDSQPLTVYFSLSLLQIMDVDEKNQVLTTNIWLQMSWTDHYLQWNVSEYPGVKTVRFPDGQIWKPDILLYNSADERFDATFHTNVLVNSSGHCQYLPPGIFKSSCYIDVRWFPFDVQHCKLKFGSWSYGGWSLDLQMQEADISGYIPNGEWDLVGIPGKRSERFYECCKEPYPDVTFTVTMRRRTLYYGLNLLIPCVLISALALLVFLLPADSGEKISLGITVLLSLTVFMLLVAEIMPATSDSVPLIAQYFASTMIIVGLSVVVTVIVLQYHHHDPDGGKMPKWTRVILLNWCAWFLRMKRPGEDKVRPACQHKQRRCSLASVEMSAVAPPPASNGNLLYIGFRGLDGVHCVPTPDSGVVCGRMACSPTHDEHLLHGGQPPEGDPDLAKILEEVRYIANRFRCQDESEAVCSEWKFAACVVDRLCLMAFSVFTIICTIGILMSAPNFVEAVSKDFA
UniProt P30926, 22-498 limits assumed: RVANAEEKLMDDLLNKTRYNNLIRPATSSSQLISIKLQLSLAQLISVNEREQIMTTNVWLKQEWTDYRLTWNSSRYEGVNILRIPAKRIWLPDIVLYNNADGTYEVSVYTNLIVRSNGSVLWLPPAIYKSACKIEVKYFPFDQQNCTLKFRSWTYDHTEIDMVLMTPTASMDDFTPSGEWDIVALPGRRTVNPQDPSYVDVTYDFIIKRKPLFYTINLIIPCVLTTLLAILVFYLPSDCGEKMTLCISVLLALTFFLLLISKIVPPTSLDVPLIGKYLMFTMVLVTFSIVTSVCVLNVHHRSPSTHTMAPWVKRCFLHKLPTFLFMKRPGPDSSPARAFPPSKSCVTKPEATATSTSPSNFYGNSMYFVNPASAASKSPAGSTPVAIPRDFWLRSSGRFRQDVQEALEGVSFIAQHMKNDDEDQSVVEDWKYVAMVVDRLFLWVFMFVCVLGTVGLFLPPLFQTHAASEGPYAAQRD
UniProt P32297, 32-505 limits assumed: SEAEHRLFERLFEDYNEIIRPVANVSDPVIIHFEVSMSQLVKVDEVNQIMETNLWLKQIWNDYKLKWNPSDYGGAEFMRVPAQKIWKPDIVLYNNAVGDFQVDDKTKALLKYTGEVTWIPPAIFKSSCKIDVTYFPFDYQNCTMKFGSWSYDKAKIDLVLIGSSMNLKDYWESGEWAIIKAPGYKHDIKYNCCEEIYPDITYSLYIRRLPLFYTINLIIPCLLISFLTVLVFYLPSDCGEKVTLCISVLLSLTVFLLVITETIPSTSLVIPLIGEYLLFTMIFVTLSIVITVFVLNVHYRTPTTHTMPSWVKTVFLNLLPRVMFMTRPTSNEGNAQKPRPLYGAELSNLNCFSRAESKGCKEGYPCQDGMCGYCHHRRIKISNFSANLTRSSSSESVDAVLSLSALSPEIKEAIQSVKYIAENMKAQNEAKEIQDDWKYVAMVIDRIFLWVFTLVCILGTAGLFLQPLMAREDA
UniProt P17787, 26-502 limits assumed: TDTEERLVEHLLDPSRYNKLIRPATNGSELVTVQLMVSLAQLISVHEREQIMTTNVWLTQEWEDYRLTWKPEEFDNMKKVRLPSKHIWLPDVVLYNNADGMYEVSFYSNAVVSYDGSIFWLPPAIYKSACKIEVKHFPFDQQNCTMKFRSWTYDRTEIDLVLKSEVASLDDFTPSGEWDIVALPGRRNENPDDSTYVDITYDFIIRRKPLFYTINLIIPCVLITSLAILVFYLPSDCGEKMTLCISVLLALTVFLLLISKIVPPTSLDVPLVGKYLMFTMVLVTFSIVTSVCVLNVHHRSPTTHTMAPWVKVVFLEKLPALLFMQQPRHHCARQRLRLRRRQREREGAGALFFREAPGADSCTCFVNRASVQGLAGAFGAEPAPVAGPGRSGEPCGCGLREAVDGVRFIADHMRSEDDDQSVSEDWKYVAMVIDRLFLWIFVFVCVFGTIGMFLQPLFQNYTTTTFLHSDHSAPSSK
UniProt P43681, 29-627 limits assumed: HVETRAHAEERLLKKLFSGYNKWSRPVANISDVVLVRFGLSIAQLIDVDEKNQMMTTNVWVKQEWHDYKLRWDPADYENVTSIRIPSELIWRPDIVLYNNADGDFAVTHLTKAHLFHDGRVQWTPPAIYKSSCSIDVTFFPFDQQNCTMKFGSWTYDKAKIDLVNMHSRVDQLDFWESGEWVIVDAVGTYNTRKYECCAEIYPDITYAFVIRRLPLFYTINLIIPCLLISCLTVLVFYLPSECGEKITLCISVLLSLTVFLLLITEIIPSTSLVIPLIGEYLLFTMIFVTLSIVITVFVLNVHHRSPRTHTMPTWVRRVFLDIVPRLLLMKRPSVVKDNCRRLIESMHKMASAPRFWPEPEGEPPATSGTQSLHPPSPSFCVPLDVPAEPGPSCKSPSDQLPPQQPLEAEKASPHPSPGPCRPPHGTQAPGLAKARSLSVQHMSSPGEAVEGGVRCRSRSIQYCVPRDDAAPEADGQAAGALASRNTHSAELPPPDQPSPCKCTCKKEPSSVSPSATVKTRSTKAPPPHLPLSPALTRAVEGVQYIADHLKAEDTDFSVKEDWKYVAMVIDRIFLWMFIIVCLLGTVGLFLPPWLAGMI

Columns and labels:
Human α7 = Human α7 (Homo sapiens (Human), UniProt P36544); format: binding; settings: range printed after the value
α3β4 nAChR = α3β4 nAChR (Homo sapiens (Human), UniProt P30926+P32297); format: binding; settings: human α3β4 in HEK 293, 0.5 nM [3H]-epibatidine; range printed after the value
Method: (§1) HEK 293 cells were grown in Dulbecco's modified Eagle medium supplemented with 10% fetal bovine serum, 1% L-Glutamine, 100 units/ml penicillin G, and 100 μg/streptomycin in a humidified atmosphere containing 10% CO2. The cDNAs encoding α3 and β4 or α4 and β2 (were transfected into the HEK 293 cells at 30% confluency). The cell transfections were carried out in 100 mm Petri dishes using 30 μL of JetPEI™ (Polypus, France) (1 mg/ml, pH 7.2) and 3 μg of each cDNA. After 24 h transfection, the cells were collected, washed with PBS by centrifugation, and used for binding analysis.
(§2) [^3H]-epibatidine saturation binding experiments to HEK transfected α3β4 or α4β2 receptors were performed by means of overnight incubation at 4° C. at concentrations ranging from 0.005 to 1 nM in a buffer containing 50 mM Tris-HCl, pH 7, 150 mM NaCl, 5 mM KCl, 1 mM MgCl2, 2.5 mM CaCl2 and 2 mg/ml BSA, in the presence (aspecific binding) or absence (total binding) of 100 nM cold epibatidine. Specific ligand binding was defined as total binding minus the binding in the presence of 100 nM cold epibatidine.
(§3) After incubation, the membranes of HEK cells transfected with α4β2* or α3β4 subtypes were washed by filtration on GFC filters with ice-cold PBS. The GFC filters were pre-soaked in polyethylenimine and filtered through an harvester apparatus. [^3H]-epibatidine binding was determined by means of liquid scintillation counting in a beta counter.
(§4) The ligand binding data were analyzed by means of nonlinear regression using Prism version 5 (GraphPad Software, Inc., La Jolla, Calif.). The Ki values were calculated from the experimental IC50 values using the Cheng-Prusoff equation for a single population of competitive sites: Ki=IC50/[1+(L/Kd)], where L is the concentration of radioligand used in each experiment and the Kd values were determined by saturation binding experiment. All of the assays were performed in duplicate and repeated at least two-three times.

α4β2 nAChR = α4β2 nAChR (Homo sapiens (Human), UniProt P17787+P43681); format: binding; settings: for Ratio α3β4/α4β2: ratio of Ki values
Method: as §1, §2, §3, §4

α7 nAChRs = α7 nAChRs (Homo sapiens (Human), UniProt P36544); format: cell-based; settings: compounds at 100 μM, relative to 1 mM ACh
Method: (§5) Compounds of the invention were tested for effects on the function of human α4β2, α3β4 and α7 nicotinic acetylcholine receptors (nAChRs) expressed heterologously in Xenopus oocytes. […] Expression in oocytes was obtained as follows: pCI (Promega, UK) plasmid containing human α4, β2, β4 or α7 complementary DNA were injected as previously described (Moroni et al., 2006). To express (α4)3(β2)2 nACh receptors, a mixture of 10α4:1β2 cDNAs was injected into the nucleus of oocytes, whereas for (α4)2(β2)3 receptors the cDNA ratio injected was 1α4:10β2.
(§6) Functional studies: Recordings were performed manually using a Geneclamp amplifier (Molecular Devices, USA) or using an automated HiClamp system. In both cases the oocytes were impaled with two electrodes filled with 3 M KCl and the cells were held at −60 mV throughout the experiments.
Oocyte isolation and two-electrode voltage-clamp recordings on oocytes were carried out as previously described (Moroni et al., 2006; Carbone et al., 2009). […] A minimum interval of 5 min was allowed between agonist applications to ensure reproducible recordings. Oocytes were exposed to increasing concentrations of the compounds until no further increases in the response amplitude were obtained. This concentration was taken as the concentration that causes maximal responses on the receptors tested. […]

α3β4 nAChRs = α3β4 nAChRs (Homo sapiens (Human), UniProt P30926+P32297); assay: Maximal gating efficacy on α3β4 nAChRs in Xenopus oocytes, two electrode voltage clamp; format: cell-based; settings: maximal current relative to 1 mM ACh
Method: as §5, §6
(§7) Oocyte isolation and two-electrode voltage-clamp recordings on oocytes were carried out as previously described (Moroni et al., 2006; Carbone et al., 2009). […] A minimum interval of 5 min was allowed between agonist applications to ensure reproducible recordings. […]
Maximal gating efficacy of the compounds on α3β4 nAChRs: The concentration of the compounds causing maximal activation of α3β4 nAChRs expressed heterologously in Xenopus oocytes was determined using two electrode voltage clamping.

(α4)2(β2)3 nAChRs = (α4)2(β2)3 nAChRs (Homo sapiens (Human), UniProt P17787+P43681); assay: Maximal gating efficacy on (α4)2(β2)3 nAChRs in Xenopus oocytes, two electrode voltage clamp; format: cell-based; settings: (α4)2(β2)3, high sensitivity receptors; maximal current relative to 1 mM ACh
Method: as §5, §6, §7
Maximal gating efficacy of compounds on (α4)2(β2)3 receptors (high sensitivity receptors): The concentration of the compounds causing maximal activation of the (α4)2(β2)3 nAChRs expressed heterologously in Xenopus oocytes was determined using two electrode voltage clamping.

(α4)3(β2)2 nAChRs = (α4)3(β2)2 nAChRs (Homo sapiens (Human), UniProt P17787+P43681); assay: Maximal gating efficacy on (α4)3(β2)2 nAChRs in Xenopus oocytes, two electrode voltage clamp; format: cell-based; settings: (α4)3(β2)2, low sensitivity stoichiometry; maximal current relative to 1 mM ACh
Method: as §5, §6, §7
Maximal gating efficacy of the compounds: The concentration of the compounds of the invention causing maximal activation of the (α4)3(β2)2 nAChRs expressed heterologously in Xenopus oocytes was determined using two electrode voltage clamping.

SMILES: CCNc1cc2n(c(=O)c1)CC1CNCC2C1 (single isomer, unassigned; (+)) [Compound 87, (+)4-(N-ethylamino)cytisine]
- Human α7 K(i) (Human α7): 9804 1255-76600 nM
- α3β4 (α3β4 nAChR): 14950.00 7611-29370 nM
- α4β2 (α4β2 nAChR; human α4β2 in HEK 293, 0.25 nM [3H]-epibatidine, range printed after the value): 17.9 4.3-74.2 nM

SMILES: O=c1cc(F)cc2n1CC1CNC[C@@H]2C1 (single isomer, unassigned; (-)) [Compound 82, (−)4-Fluorocytisine]
- Relative efficacy (ACh) (α7 nAChRs): 0.18 ± 0.04
- Relative efficacy (ACh) (α3β4 nAChRs): 0.073 ± 0.06
- Relative efficacy (ACh) ((α4)2(β2)3 nAChRs): 0.01 ± 0.001
- Ratio α3β4/α4β2 (α4β2 nAChR): 699.3
- Relative efficacy (ACh) ((α4)3(β2)2 nAChRs): 0.12 ± 0.02

SMILES: O=c1cc(CNCc2cc3n(c(=O)c2)CC2CNC[C@@H]3C2)cc2n1CC1CNC[C@@H]2C1 [Compound 154, Amine bis(cytisine) Derivative]
- Relative efficacy (ACh) (α7 nAChRs): No response at 100 μM
- Relative efficacy (ACh) (α3β4 nAChRs): 0.093 ± 0.091
- Relative efficacy (ACh) ((α4)2(β2)3 nAChRs): 0.0001 ± 0.00001
- Ratio α3β4/α4β2 (α4β2 nAChR): 7428.0
- Relative efficacy (ACh) ((α4)3(β2)2 nAChRs): 0.013 ± 0.008
